In the supplement of paper PMC7661543:
The effect of the compound repeats well; differences between the knockouts mostly do not.

Tested on: BT-20
Test: relative cell number vs DMSO control (72 h) (% of DMSO); higher = less growth inhibition (more cells)
Protocol: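 QMAP-Seq: a pool of 5 breast cancer cell lines (ZR-75-1, SKBR3, HCC-38, MDA-MB-231, BT-20), each carrying 12 doxycycline-inducible Cas9 sgRNA perturbations (11 knockouts plus non-targeting sgNT), was treated with compounds for 72 h at four 10-fold doses (10 nM-10 uM or 1 nM-1 uM range). Barcodes were amplified and sequenced, and cell number was interpolated from 293T spike-in standard curves. The result is expressed as % of the median of DMSO wells. Two biological replicates.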

CC(C)n1c(/C=C/C(O)CC(O)CC(=O)O)c(-c2ccc(F)cc2)c2ccccc21 (stereo not drawn) [Fluvastatin]
Details | relative cell number
sgRNA knockout: sgATF3, 10 nM | 98.5
sgRNA knockout: sgATF3, 100 nM | 97.5
sgRNA knockout: sgATF3, 1000 nM | 76.1
sgRNA knockout: sgATF3, 10000 nM | 70.3
sgRNA knockout: sgATF4, 10 nM | 102
sgRNA knockout: sgATF4, 100 nM | 98.7
sgRNA knockout: sgATF4, 1000 nM | 97.1
sgRNA knockout: sgATF4, 10000 nM | 69.3
sgRNA knockout: sgATF6, 10 nM | 81.3
sgRNA knockout: sgATF6, 100 nM | 99.8
sgRNA knockout: sgATF6, 1000 nM | 92.1
sgRNA knockout: sgATF6, 10000 nM | 65.5
sgRNA knockout: sgATG7, 10 nM | 97.1
sgRNA knockout: sgATG7, 100 nM | 98.8
sgRNA knockout: sgATG7, 1000 nM | 85.7
sgRNA knockout: sgATG7, 10000 nM | 66.6
sgRNA knockout: sgERN1, 10 nM | 94.1
sgRNA knockout: sgERN1, 100 nM | 114
sgRNA knockout: sgERN1, 1000 nM | 97.6
sgRNA knockout: sgERN1, 10000 nM | 68.4
sgRNA knockout: sgHSF1, 10 nM | 98.7
sgRNA knockout: sgHSF1, 100 nM | 92.2
sgRNA knockout: sgHSF1, 1000 nM | 89.6
sgRNA knockout: sgHSF1, 10000 nM | 70.9
sgRNA knockout: sgHSF2, 10 nM | 83.5
sgRNA knockout: sgHSF2, 100 nM | 89.3
sgRNA knockout: sgHSF2, 1000 nM | 83.2
sgRNA knockout: sgHSF2, 10000 nM | 71.3
sgRNA knockout: sgKEAP1, 10 nM | 108
sgRNA knockout: sgKEAP1, 100 nM | 99.2
sgRNA knockout: sgKEAP1, 1000 nM | 94
sgRNA knockout: sgKEAP1, 10000 nM | 67.4
sgRNA knockout: sgNFE2L2, 10 nM | 96.8
sgRNA knockout: sgNFE2L2, 100 nM | 94
sgRNA knockout: sgNFE2L2, 1000 nM | 90.7
sgRNA knockout: sgNFE2L2, 10000 nM | 75.5
sgRNA knockout: sgSLC35F2, 10 nM | 100
sgRNA knockout: sgSLC35F2, 100 nM | 105
sgRNA knockout: sgSLC35F2, 1000 nM | 75.96
sgRNA knockout: sgSLC35F2, 10000 nM | 73
sgRNA knockout: sgXBP1, 10 nM | 87.2
sgRNA knockout: sgXBP1, 100 nM | 108
sgRNA knockout: sgXBP1, 1000 nM | 81.9
sgRNA knockout: sgXBP1, 10000 nM | 83.3

Nc1nc(Cl)nc2c1ncn2[C@@H]1O[C@H](CO)[C@@H](O)[C@@H]1F [Clofarabine]
Details | relative cell number
sgRNA knockout: sgATF3, 10 nM | 76.7
sgRNA knockout: sgATF3, 100 nM | 71.3
sgRNA knockout: sgATF3, 1000 nM | 30.3
sgRNA knockout: sgATF3, 10000 nM | 25.5
sgRNA knockout: sgATF4, 10 nM | 106
sgRNA knockout: sgATF4, 100 nM | 76.6
sgRNA knockout: sgATF4, 1000 nM | 29.7
sgRNA knockout: sgATF4, 10000 nM | 26.1
sgRNA knockout: sgATF6, 10 nM | 91.9
sgRNA knockout: sgATF6, 100 nM | 77.5
sgRNA knockout: sgATF6, 1000 nM | 22.1
sgRNA knockout: sgATF6, 10000 nM | 21.8
sgRNA knockout: sgATG7, 10 nM | 94.5
sgRNA knockout: sgATG7, 100 nM | 82.9
sgRNA knockout: sgATG7, 1000 nM | 34.1
sgRNA knockout: sgATG7, 10000 nM | 27.1
sgRNA knockout: sgERN1, 10 nM | 91.3
sgRNA knockout: sgERN1, 100 nM | 85.2
sgRNA knockout: sgERN1, 1000 nM | 30.6
sgRNA knockout: sgERN1, 10000 nM | 23.6
sgRNA knockout: sgHSF1, 10 nM | 104
sgRNA knockout: sgHSF1, 100 nM | 77.4
sgRNA knockout: sgHSF1, 1000 nM | 28.5
sgRNA knockout: sgHSF1, 10000 nM | 23.2
sgRNA knockout: sgHSF2, 10 nM | 75.4
sgRNA knockout: sgHSF2, 100 nM | 73.9
sgRNA knockout: sgHSF2, 1000 nM | 33.5
sgRNA knockout: sgHSF2, 10000 nM | 25.9
sgRNA knockout: sgKEAP1, 10 nM | 92.54
sgRNA knockout: sgKEAP1, 100 nM | 76.1
sgRNA knockout: sgKEAP1, 1000 nM | 34.2
sgRNA knockout: sgKEAP1, 10000 nM | 25
sgRNA knockout: sgNFE2L2, 10 nM | 112
sgRNA knockout: sgNFE2L2, 100 nM | 73
sgRNA knockout: sgNFE2L2, 1000 nM | 24.8
sgRNA knockout: sgNFE2L2, 10000 nM | 19.3
sgRNA knockout: sgSLC35F2, 10 nM | 103
sgRNA knockout: sgSLC35F2, 100 nM | 83.2
sgRNA knockout: sgSLC35F2, 1000 nM | 27.67
sgRNA knockout: sgSLC35F2, 10000 nM | 27.4
sgRNA knockout: sgXBP1, 10 nM | 99.1
sgRNA knockout: sgXBP1, 100 nM | 80.4
sgRNA knockout: sgXBP1, 1000 nM | 27.3
sgRNA knockout: sgXBP1, 10000 nM | 22.7
